Publication PMC6312924
These are yes or no findings as the source states them, for the method shown. Binding seen in cells or lysates may run through a third protein. Some binding calls cover weakened binding; strength is not graded here. Sequences can lack the tags named with a protein.

Amino acid sequences for entries named in this document (tags omitted).
UniProt Q8C0T5: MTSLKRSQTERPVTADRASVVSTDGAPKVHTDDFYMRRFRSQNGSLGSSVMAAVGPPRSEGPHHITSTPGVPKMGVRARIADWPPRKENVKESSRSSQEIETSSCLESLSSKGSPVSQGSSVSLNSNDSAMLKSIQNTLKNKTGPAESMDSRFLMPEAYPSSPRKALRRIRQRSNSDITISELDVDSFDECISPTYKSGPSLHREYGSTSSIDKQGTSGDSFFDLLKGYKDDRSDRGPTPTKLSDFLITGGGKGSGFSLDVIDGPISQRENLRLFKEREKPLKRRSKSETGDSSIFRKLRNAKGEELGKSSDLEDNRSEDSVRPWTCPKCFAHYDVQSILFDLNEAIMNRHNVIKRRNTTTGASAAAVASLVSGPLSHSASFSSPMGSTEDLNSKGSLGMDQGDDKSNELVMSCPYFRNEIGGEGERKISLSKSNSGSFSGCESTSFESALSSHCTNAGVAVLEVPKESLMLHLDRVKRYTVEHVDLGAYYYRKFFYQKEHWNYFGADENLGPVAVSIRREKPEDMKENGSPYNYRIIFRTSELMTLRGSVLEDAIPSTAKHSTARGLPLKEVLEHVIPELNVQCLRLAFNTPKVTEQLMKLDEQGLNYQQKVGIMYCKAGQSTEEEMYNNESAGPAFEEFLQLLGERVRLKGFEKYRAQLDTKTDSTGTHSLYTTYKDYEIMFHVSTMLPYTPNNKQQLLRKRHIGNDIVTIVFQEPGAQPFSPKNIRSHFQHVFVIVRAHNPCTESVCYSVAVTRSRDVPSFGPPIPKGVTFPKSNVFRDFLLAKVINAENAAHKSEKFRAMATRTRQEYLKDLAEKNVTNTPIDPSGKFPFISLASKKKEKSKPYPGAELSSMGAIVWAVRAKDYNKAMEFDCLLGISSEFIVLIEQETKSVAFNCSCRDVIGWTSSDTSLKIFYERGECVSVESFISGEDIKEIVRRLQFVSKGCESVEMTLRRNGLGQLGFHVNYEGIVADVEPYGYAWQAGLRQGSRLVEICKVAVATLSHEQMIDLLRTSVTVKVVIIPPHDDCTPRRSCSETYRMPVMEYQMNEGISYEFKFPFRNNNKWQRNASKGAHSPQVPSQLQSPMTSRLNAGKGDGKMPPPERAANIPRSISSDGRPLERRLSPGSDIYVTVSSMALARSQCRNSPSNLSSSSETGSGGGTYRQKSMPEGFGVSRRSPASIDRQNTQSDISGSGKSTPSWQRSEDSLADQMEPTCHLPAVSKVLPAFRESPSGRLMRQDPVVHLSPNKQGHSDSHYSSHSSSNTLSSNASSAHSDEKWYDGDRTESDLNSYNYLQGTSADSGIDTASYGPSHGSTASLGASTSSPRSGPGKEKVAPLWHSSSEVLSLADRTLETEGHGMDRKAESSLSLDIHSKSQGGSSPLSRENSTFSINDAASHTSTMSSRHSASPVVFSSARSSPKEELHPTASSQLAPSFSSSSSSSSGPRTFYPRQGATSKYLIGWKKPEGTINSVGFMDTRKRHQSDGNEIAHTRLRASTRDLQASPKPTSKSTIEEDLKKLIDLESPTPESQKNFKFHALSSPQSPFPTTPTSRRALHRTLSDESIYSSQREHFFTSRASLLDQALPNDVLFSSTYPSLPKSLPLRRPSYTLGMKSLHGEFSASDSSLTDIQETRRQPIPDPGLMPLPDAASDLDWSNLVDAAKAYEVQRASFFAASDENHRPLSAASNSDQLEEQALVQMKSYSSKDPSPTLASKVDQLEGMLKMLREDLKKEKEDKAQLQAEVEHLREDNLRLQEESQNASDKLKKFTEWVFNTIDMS

Target: T1, myc-tagged full length cyclin G-associated kinase (GAK) wildtype (mouse) (UniProt Q3UIZ0)
T1 sequence: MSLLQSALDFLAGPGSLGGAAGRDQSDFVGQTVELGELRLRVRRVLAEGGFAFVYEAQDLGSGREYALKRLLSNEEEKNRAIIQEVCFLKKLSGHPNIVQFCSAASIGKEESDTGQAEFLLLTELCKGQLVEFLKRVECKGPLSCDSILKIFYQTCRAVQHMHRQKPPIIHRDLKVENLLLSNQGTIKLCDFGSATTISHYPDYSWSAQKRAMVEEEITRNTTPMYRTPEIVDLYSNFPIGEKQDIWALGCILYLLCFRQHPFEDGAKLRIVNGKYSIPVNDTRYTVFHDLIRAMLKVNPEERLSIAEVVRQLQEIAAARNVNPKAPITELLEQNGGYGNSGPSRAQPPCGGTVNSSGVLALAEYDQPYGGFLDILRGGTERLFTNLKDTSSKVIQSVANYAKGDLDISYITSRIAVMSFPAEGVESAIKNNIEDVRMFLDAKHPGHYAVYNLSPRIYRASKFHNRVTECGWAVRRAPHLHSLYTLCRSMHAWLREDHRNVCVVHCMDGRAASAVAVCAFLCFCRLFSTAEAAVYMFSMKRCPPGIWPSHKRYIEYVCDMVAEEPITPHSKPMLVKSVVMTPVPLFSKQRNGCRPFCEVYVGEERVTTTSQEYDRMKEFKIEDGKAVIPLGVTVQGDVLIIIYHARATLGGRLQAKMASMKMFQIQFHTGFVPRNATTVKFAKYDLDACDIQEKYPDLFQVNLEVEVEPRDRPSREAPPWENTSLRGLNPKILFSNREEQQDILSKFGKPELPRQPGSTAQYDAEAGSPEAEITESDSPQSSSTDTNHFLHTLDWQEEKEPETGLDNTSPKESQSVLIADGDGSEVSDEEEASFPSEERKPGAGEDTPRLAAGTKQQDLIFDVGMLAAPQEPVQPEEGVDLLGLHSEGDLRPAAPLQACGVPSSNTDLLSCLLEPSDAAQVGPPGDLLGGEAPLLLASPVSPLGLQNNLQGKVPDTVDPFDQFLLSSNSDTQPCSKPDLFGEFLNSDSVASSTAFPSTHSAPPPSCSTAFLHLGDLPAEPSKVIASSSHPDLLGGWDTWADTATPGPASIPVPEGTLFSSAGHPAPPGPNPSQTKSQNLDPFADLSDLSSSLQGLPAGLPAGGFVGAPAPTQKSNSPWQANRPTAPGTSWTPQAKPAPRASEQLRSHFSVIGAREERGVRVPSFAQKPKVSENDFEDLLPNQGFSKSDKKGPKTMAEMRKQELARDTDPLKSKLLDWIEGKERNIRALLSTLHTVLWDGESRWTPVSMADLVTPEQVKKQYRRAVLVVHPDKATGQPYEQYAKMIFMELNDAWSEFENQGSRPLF
Test: co-IP; HEK 293T cells co-transfected with myc-tagged FL GAK and the HA-tagged partner; GAK immunoprecipitated (GAK antibody), partner detected by blot; HA- and myc-tagged pRK5 vectors as IP controls

How did the binding turn out when “HA-tagged Sipa1L1 full length (signal-induced proliferation-associated 1-like protein 1) (from UniProt Q8C0T5 1-1782)” was run?
Its binding is “binds”.
